# Like-named read-outs stand apart in the source and are kept apart here. The source gives many values for each of these; only a part stands here.
# Protein sequences, listed by entry. Tags and fused reporters are not part of them. Lines headed by an entry give the natural chain unless they say otherwise; changes in a name come on top.
# UniProt P10275: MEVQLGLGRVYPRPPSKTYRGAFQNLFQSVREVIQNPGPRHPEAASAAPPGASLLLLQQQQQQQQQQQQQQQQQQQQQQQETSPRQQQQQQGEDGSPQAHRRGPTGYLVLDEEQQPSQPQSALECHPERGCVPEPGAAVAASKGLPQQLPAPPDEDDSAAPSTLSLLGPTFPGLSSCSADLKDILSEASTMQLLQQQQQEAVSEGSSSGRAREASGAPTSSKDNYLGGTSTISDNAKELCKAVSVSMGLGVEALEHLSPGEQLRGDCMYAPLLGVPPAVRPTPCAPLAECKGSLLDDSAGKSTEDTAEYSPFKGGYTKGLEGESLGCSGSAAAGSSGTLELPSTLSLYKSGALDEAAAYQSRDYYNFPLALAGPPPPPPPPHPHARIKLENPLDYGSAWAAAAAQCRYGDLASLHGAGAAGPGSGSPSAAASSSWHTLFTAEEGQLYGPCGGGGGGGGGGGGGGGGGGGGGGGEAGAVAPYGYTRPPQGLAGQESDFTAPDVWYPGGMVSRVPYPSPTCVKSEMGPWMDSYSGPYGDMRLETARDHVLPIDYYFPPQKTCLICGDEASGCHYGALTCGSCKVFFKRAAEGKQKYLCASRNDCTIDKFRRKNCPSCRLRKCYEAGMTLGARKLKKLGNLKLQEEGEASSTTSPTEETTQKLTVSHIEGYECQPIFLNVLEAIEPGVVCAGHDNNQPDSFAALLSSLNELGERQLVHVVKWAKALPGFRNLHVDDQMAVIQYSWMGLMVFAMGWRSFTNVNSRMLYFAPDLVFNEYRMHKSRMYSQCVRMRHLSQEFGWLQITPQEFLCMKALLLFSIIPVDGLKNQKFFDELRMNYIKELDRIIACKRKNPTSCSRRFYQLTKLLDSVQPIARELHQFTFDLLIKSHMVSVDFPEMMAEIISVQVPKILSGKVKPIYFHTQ
# Molecular target: AR (Homo sapiens, UniProt P10275)
# Conditions: VCaP R1881-treated
# Procedure: For ERG ChIP, LNCaP, VCaP, RWPE+ERG, and RWPE+GUS cells grown in corresponding regular medium were used.
# ChIP samples were prepared for sequencing using the Genomic DNA sample prep kit (Illumina) following manufacturers protocols. ChIP-Sequencing was performed using Illumina Genome Analyzer according to standard manufacturer's procedures. The raw sequencing image data were analyzed by the Illumina analysis pipeline, aligned to the unmasked human reference genome (NCBI v36, hg18) using the ELAND software (Illumina) to generate sequence reads of 25-32 bps.
# It was first counted how many uniquely mapped reads are there in each sample and the ratio of the two counts was used as the normalizing factor to bring the total number of useable reads to the same level in both samples. Next each uniquely mapped read was extended directionally to form a 200 bp hypothetical DNA fragment (HDF) in each sample. 200 is assumed to be the average length of size-selected DNA pieces during sample preparation (175-225 bp).
# Under the null hypothesis of no enrichment in the stimulated sample versus unstimulated samples, reads from both samples are assumed to land on the genome following the same Poisson distribution (after corrected for the read counts in the unstimulated sample). The average sequencing depth across the whole genome is used as the background rate estimate r0. The probability of observing the read difference between two samples in each coverage region was calculated numerically.
# HMM was applied to define where enriched regions start and end. To be specific, the entire genome was partitioned into 25 bp bin and the read coverage is counted in each bin in the two samples. The two states are enriched region and background. The observed data are HDF coverage difference. In the enriched regions, it was expected that enrichment of HDFs would be present in the stimulated sample but not in the unstimulated samples. Therefore the differences are assumed to be the result of two different Poisson distributions with rates r1 and r2, r1>r2. In background, the differences are assumed to come from two identical Poisson distribution with rate r0. The transition probabilities are estimated empirically. From the output of HMM, regions are selected based on posterior probability of being in the enriched regions.
compound,measurement,setting,value
"C[C@]1(O)CC[C@H]2[C@@H]3CCC4=CC(=O)CCC4=C3C=C[C@@]21C [R1881, methyltrienolone]",number of AR binding sites,distance to TSS 7 kb,87
same,number of AR binding sites,distance to TSS 8 kb,82
same,number of AR binding sites,distance to TSS 9 kb,89
same,number of AR binding sites,distance to TSS 10 kb,69
same,number of AR binding sites,distance to TSS 11 kb,59
same,number of AR binding sites,distance to TSS 12 kb,69
same,number of AR binding sites,distance to TSS 13 kb,62
same,number of AR binding sites,distance to TSS 14 kb,67
same,number of AR binding sites,distance to TSS 15 kb,56
same,number of AR binding sites,distance to TSS 16 kb,49
same,number of AR binding sites,distance to TSS 17 kb,57
same,number of AR binding sites,distance to TSS 18 kb,55
same,number of AR binding sites,distance to TSS 19 kb,38
same,number of AR binding sites,distance to TSS 20 kb,49
same,number of AR binding sites,distance to TSS 21 kb,42
same,number of AR binding sites,distance to TSS 22 kb,45
same,number of AR binding sites,distance to TSS 23 kb,47
same,number of AR binding sites,distance to TSS 24 kb,48
same,number of AR binding sites,distance to TSS 25 kb,34
same,number of AR binding sites,distance to TSS 26 kb,47
same,number of AR binding sites,distance to TSS 27 kb,46
same,number of AR binding sites,distance to TSS 28 kb,49
same,number of AR binding sites,distance to TSS 29 kb,28
same,number of AR binding sites,distance to TSS 30 kb,37
same,number of AR binding sites,distance to TSS 31 kb,31
same,number of AR binding sites,distance to TSS 32 kb,40
same,number of AR binding sites,distance to TSS 33 kb,42
same,number of AR binding sites,distance to TSS 34 kb,27
same,number of AR binding sites,distance to TSS 35 kb,22
same,number of AR binding sites,distance to TSS 36 kb,33
same,number of AR binding sites,distance to TSS 37 kb,34
same,number of AR binding sites,distance to TSS 38 kb,25
same,number of AR binding sites,distance to TSS 39 kb,31
same,number of AR binding sites,distance to TSS 40 kb,33
same,number of AR binding sites,distance to TSS 41 kb,21
same,number of AR binding sites,distance to TSS 42 kb,26
same,number of AR binding sites,distance to TSS 43 kb,22
same,number of AR binding sites,distance to TSS 44 kb,19
same,number of AR binding sites,distance to TSS 45 kb,31
same,number of AR binding sites,distance to TSS 46 kb,20
same,number of AR binding sites,distance to TSS 47 kb,22
same,number of AR binding sites,distance to TSS 48 kb,22
same,number of AR binding sites,distance to TSS 49 kb,26
same,number of AR binding sites,distance to TSS 50 kb,22
same,number of AR binding sites,distance to TSS 51 kb,23
same,number of AR binding sites,distance to TSS 52 kb,20
same,number of AR binding sites,distance to TSS 53 kb,20
same,number of AR binding sites,distance to TSS 54 kb,16
same,number of AR binding sites,distance to TSS 55 kb,16
same,number of AR binding sites,distance to TSS 56 kb,24
same,number of AR binding sites,distance to TSS 57 kb,14
same,number of AR binding sites,distance to TSS 58 kb,25
same,number of AR binding sites,distance to TSS 59 kb,16
same,number of AR binding sites,distance to TSS 60 kb,19
same,number of AR binding sites,distance to TSS 61 kb,24
same,number of AR binding sites,distance to TSS 62 kb,20
same,number of AR binding sites,distance to TSS 63 kb,18
same,number of AR binding sites,distance to TSS 64 kb,11
same,number of AR binding sites,distance to TSS 65 kb,15
same,number of AR binding sites,distance to TSS 66 kb,20
same,number of AR binding sites,distance to TSS 67 kb,19
same,number of AR binding sites,distance to TSS 68 kb,15
same,number of AR binding sites,distance to TSS 69 kb,18
same,number of AR binding sites,distance to TSS 70 kb,16
same,number of AR binding sites,distance to TSS 71 kb,11
same,number of AR binding sites,distance to TSS 72 kb,22
same,number of AR binding sites,distance to TSS 73 kb,19
same,number of AR binding sites,distance to TSS 74 kb,12
same,number of AR binding sites,distance to TSS 75 kb,18
same,number of AR binding sites,distance to TSS 76 kb,19
same,number of AR binding sites,distance to TSS 77 kb,15
same,number of AR binding sites,distance to TSS 78 kb,18
same,number of AR binding sites,distance to TSS 79 kb,19
same,number of AR binding sites,distance to TSS 80 kb,7
same,number of AR binding sites,distance to TSS 81 kb,15
same,number of AR binding sites,distance to TSS 82 kb,9
same,number of AR binding sites,distance to TSS 83 kb,19
same,number of AR binding sites,distance to TSS 84 kb,12
same,number of AR binding sites,distance to TSS 85 kb,10
same,number of AR binding sites,distance to TSS 86 kb,12
same,number of AR binding sites,distance to TSS 87 kb,18
same,number of AR binding sites,distance to TSS 88 kb,8
same,number of AR binding sites,distance to TSS 89 kb,8
same,number of AR binding sites,distance to TSS 90 kb,11
same,number of AR binding sites,distance to TSS 91 kb,16
same,number of AR binding sites,distance to TSS 92 kb,14
same,number of AR binding sites,distance to TSS 93 kb,10
same,number of AR binding sites,distance to TSS 94 kb,6
same,number of AR binding sites,distance to TSS 95 kb,19
same,number of AR binding sites,distance to TSS 96 kb,9
same,number of AR binding sites,distance to TSS 97 kb,5
same,number of AR binding sites,distance to TSS 98 kb,11
same,number of AR binding sites,distance to TSS 99 kb,12
same,number of AR binding sites,distance to TSS 100 kb,7
same,number of AR binding sites,distance to TSS 101 kb,18
same,number of AR binding sites,distance to TSS 102 kb,10
same,number of AR binding sites,distance to TSS 103 kb,8
same,number of AR binding sites,distance to TSS 104 kb,15
same,number of AR binding sites,distance to TSS 105 kb,9
same,number of AR binding sites,distance to TSS 106 kb,13
same,number of AR binding sites,distance to TSS 107 kb,14
same,number of AR binding sites,distance to TSS 108 kb,9
same,number of AR binding sites,distance to TSS 109 kb,7
same,number of AR binding sites,distance to TSS 110 kb,9
same,number of AR binding sites,distance to TSS 111 kb,6
same,number of AR binding sites,distance to TSS 112 kb,11
same,number of AR binding sites,distance to TSS 113 kb,8
same,number of AR binding sites,distance to TSS 114 kb,9
same,number of AR binding sites,distance to TSS 115 kb,15
same,number of AR binding sites,distance to TSS 116 kb,9
same,number of AR binding sites,distance to TSS 117 kb,5
same,number of AR binding sites,distance to TSS 118 kb,14
same,number of AR binding sites,distance to TSS 119 kb,6
same,number of AR binding sites,distance to TSS 120 kb,8
same,number of AR binding sites,distance to TSS 121 kb,12
same,number of AR binding sites,distance to TSS 122 kb,11
same,number of AR binding sites,distance to TSS 123 kb,8
same,number of AR binding sites,distance to TSS 124 kb,8
same,number of AR binding sites,distance to TSS 125 kb,4
same,number of AR binding sites,distance to TSS 126 kb,11
same,number of AR binding sites,distance to TSS 127 kb,7
same,number of AR binding sites,distance to TSS 128 kb,7
same,number of AR binding sites,distance to TSS 129 kb,8
same,number of AR binding sites,distance to TSS 130 kb,4
same,number of AR binding sites,distance to TSS 131 kb,9
same,number of AR binding sites,distance to TSS 132 kb,11
same,number of AR binding sites,distance to TSS 133 kb,7
same,number of AR binding sites,distance to TSS 134 kb,10
same,number of AR binding sites,distance to TSS 135 kb,9
same,number of AR binding sites,distance to TSS 136 kb,15
same,number of AR binding sites,distance to TSS 137 kb,13
same,number of AR binding sites,distance to TSS 138 kb,12
same,number of AR binding sites,distance to TSS 139 kb,7
same,number of AR binding sites,distance to TSS 140 kb,7
same,number of AR binding sites,distance to TSS 141 kb,7
same,number of AR binding sites,distance to TSS 142 kb,5
same,number of AR binding sites,distance to TSS 143 kb,8
same,number of AR binding sites,distance to TSS 144 kb,6
same,number of AR binding sites,distance to TSS 145 kb,6
same,number of AR binding sites,distance to TSS 146 kb,7
same,number of AR binding sites,distance to TSS 147 kb,6
same,number of AR binding sites,distance to TSS 148 kb,4
same,number of AR binding sites,distance to TSS 149 kb,10
same,number of AR binding sites,distance to TSS 150 kb,7
same,number of AR binding sites,distance to TSS 151 kb,6
same,number of AR binding sites,distance to TSS 152 kb,4
same,number of AR binding sites,distance to TSS 153 kb,8
same,number of AR binding sites,distance to TSS 154 kb,7
same,number of AR binding sites,distance to TSS 155 kb,7
same,number of AR binding sites,distance to TSS 156 kb,1
same,number of AR binding sites,distance to TSS 157 kb,7
same,number of AR binding sites,distance to TSS 158 kb,3
same,number of AR binding sites,distance to TSS 159 kb,8
same,number of AR binding sites,distance to TSS 160 kb,8
same,number of AR binding sites,distance to TSS 161 kb,2
same,number of AR binding sites,distance to TSS 162 kb,3
same,number of AR binding sites,distance to TSS 163 kb,5
same,number of AR binding sites,distance to TSS 164 kb,5
same,number of AR binding sites,distance to TSS 165 kb,7
same,number of AR binding sites,distance to TSS 166 kb,5
same,number of AR binding sites,distance to TSS 167 kb,3
same,number of AR binding sites,distance to TSS 168 kb,3
same,number of AR binding sites,distance to TSS 169 kb,5
same,number of AR binding sites,distance to TSS 170 kb,2
same,number of AR binding sites,distance to TSS 171 kb,6
same,number of AR binding sites,distance to TSS 172 kb,6
same,number of AR binding sites,distance to TSS 173 kb,6
same,number of AR binding sites,distance to TSS 174 kb,7
same,number of AR binding sites,distance to TSS 175 kb,4
same,number of AR binding sites,distance to TSS 176 kb,3
same,number of AR binding sites,distance to TSS 177 kb,3
same,number of AR binding sites,distance to TSS 178 kb,4
same,number of AR binding sites,distance to TSS 179 kb,5
same,number of AR binding sites,distance to TSS 180 kb,7
same,number of AR binding sites,distance to TSS 181 kb,5
same,number of AR binding sites,distance to TSS 182 kb,8
same,number of AR binding sites,distance to TSS 183 kb,1
same,number of AR binding sites,distance to TSS 184 kb,6
same,number of AR binding sites,distance to TSS 185 kb,6
same,number of AR binding sites,distance to TSS 186 kb,4
same,number of AR binding sites,distance to TSS 187 kb,4
same,number of AR binding sites,distance to TSS 188 kb,2
same,number of AR binding sites,distance to TSS 189 kb,5
same,number of AR binding sites,distance to TSS 190 kb,6
same,number of AR binding sites,distance to TSS 191 kb,2
same,number of AR binding sites,distance to TSS 192 kb,1
same,number of AR binding sites,distance to TSS 193 kb,3
same,number of AR binding sites,distance to TSS 194 kb,1
same,number of AR binding sites,distance to TSS 195 kb,5
same,number of AR binding sites,distance to TSS 197 kb,2
same,number of AR binding sites,distance to TSS 198 kb,3
same,number of AR binding sites,distance to TSS 199 kb,2
